Values from PubChem BioAssay AID504764 (Drosophila RNAi Screening Center, 2011)
The deposit covers about 22,000 reagents; below is a random part of those that have a named target and a result. In the full data, 403 (1.9%) were called active. 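Unnormalised raw counts per well; ratio z-scores behind the hit calls and whether each hit raises or lowers signal are not deposited.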 The numbers tell different reagents against one gene apart. Names joined by + are all predicted targets of the reagent. Reagent sequences are not shown. The record does not give: the amount of reagent.

- Aim: 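Knock-downs that raise or lower a Notch target reporter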 (primary screen)
- Cell system: Drosophila Kc167 cells
- Reagents: long dsRNA against Drosophila genes
- Timing: about 5 days (4 days dsRNA, then 24 h after transfection)
- Treatment: transfection of constitutively active membrane-tethered Notch lacking the extracellular domain, read 24 h later
- Measured: 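Light from a Notch-responsive E(spl)m3 luciferase reporter under active Notch, with control-promoter and no-Notch reporter wells to normalise; raw counts from paired wells a and b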
- Scale: induced reporter light, run 1, well a and induced reporter light, run 1, well b: higher = more light from the Notch target reporter with active Notch; control promoter light, run 1, well a and control promoter light, run 1, well b: higher = more light from the viral control promoter (cell number, transfection, viability); uninduced reporter light, run 1, well a: higher = more light from the Notch target reporter without active Notch
- Rule for the call: 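Wells with low control signal or poorly matching duplicates excluded; duplicates averaged; per source plate, z beyond ±2 for induced/control log2 ratio or beyond ±1.8 for induced/uninduced marks a hit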
- Meaning of the calls: active = modifier hit (raised or lowered Notch signal); inactive = not a hit

The first 6 entries as a preview:
no.	Gene	dsRNA no.	induced reporter light, run 1, well a	induced reporter light, run 1, well b	control promoter light, run 1, well a	control promoter light, run 1, well b	uninduced reporter light, run 1, well a	outcome
1	CG8960	1	51440	47950	69870	68520	4020	inactive
2	CG14260	1	1.55e5	1.14e5	2.13e5	1.67e5	12060	inactive
3	CG42726 + CG42727	1	1.28e5	1.21e5	91425	83160	9995	inactive
4	myo	1	1.65e5	2.01e5	2.23e5	2.12e5	12905	inactive
5	Cad96Ca	1	1.44e5	1.58e5	1.99e5	2.23e5	13805	inactive
6	Cad96Ca	2	1.66e5	1.37e5	2.09e5	2.18e5	13105	inactive

Results, repeating the preview:
no.	Gene	dsRNA no.	induced reporter light, run 1, well a	induced reporter light, run 1, well b	control promoter light, run 1, well a	control promoter light, run 1, well b	uninduced reporter light, run 1, well a	outcome
1	CG8960	1	51440	47950	69870	68520	4020	inactive
2	CG14260	1	1.55e5	1.14e5	2.13e5	1.67e5	12060	inactive
3	CG42726 + CG42727	1	1.28e5	1.21e5	91425	83160	9995	inactive
4	myo	1	1.65e5	2.01e5	2.23e5	2.12e5	12905	inactive
5	Cad96Ca	1	1.44e5	1.58e5	1.99e5	2.23e5	13805	inactive
6	Cad96Ca	2	1.66e5	1.37e5	2.09e5	2.18e5	13105	inactive
7	CG32712	1	2.01e5	1.77e5	3.20e5	3.09e5	13850	inactive
8	Rbbp5	1	1.12e5	1.03e5	69755	62045	4385	inactive
9	CG14089	1	1.34e5	1.05e5	1.26e5	1.11e5	9690	inactive
10	comm2	1	33110	25375	24245	20670	5870	inactive
11	comm2	2	1.52e5	1.75e5	2.20e5	2.28e5	9605	inactive
12	HP6	1	94560	77895	1.17e5	87855	7315	inactive
13	Ipk2	1	1.24e5	86230	86685	40685	7390	inactive
14	CG4360	1	2.01e5	1.77e5	2.31e5	2.30e5	14095	inactive
15	CG13810	1	1.38e5	1.33e5	2.45e5	2.13e5	5728	inactive
16	CG13810	2						active
17	fj	1	91105	73555	90120	74445	5280	inactive
18	CG30492 (retired record) + M7BP	1	66200	62815	94175	78860	3060	inactive
19	CG30492 (retired record) + M7BP	2	51180	72085	63965	57490	3480	inactive
20	CG30492 (retired record) + M7BP	3	88335	87005	1.04e5	1.16e5	3940	inactive
21	CG30492 (retired record) + M7BP	4	2.30e5	1.75e5	2.82e5	2.55e5	15565	inactive
22	CG30492 (retired record) + M7BP	5	2.03e5	1.55e5	2.25e5	2.16e5	13635	inactive
23	esc	1	1.75e5	1.60e5	1.66e5	1.61e5	17340	inactive
24	Mpi	1	54285	53115	69645	47095	3370	inactive
25	CG3287 (retired record)	1	2.28e5	2.08e5	2.68e5	2.83e5	20620	inactive
26	CG7542	1	1.39e5	1.52e5	1.91e5	1.45e5	6895	inactive
27	XRCC1	1	2.31e5	2.46e5	2.98e5	2.59e5	14895	inactive
28	CG8851	1	59460	60620	79220	55730	5325	inactive
29	beg	1	1.24e5	1.03e5	70120	66400	7250	inactive
30	stnB + stnA	1	2.63e5	2.53e5	3.50e5	3.72e5	12785	inactive
31	stnB + stnA	2	74570	77965	1.05e5	91385	7535	inactive
32	stnB + stnA	3	1.02e5	86550	1.00e5	1.26e5	9525	inactive
33	CG13151	1	1.11e5	1.18e5	1.73e5	1.15e5	10480	inactive
34	Mrm2	1	1.70e5	1.51e5	2.07e5	2.00e5	11600	inactive
35	CG10300	1	1.81e5	2.02e5	1.96e5	1.80e5	15430	inactive
36	CG8306	1	56810	61825	1.19e5	1.21e5	6685	inactive
37	CG13170	1	94975	80970	1.04e5	1.10e5	10115	inactive
38	CG14711 + Zaf1	1	40200	51635	74505	41835	2995	inactive
39	tsu	1	2.07e5	1.75e5	1.95e5	1.88e5	13445	inactive
40	CG31776	1	1.41e5	1.16e5	1.57e5	1.26e5	8495	inactive
41	CG11920	1	1.28e5	1.31e5	1.69e5	1.84e5	9745	inactive
42	Art4	1	40840	52535	56770	39530	3132	inactive
43	Pi3K21B	1	1.50e5	1.64e5	1.17e5	1.59e5	14855	inactive
44	CG9269	1	2.33e5	2.49e5	2.45e5	2.33e5	17415	inactive
45	mRRF1	1	83985	1.29e5	85130	32280	7245	inactive
46	Marf	1	1.23e5	1.34e5	1.57e5	1.14e5	9742	inactive
47	pch2	1	72535	82065	81360	65370	5995	inactive
48	Dad	1	2.35e5	2.58e5	3.12e5	3.62e5	19285	inactive
49	PNUTS	1	1.52e5	1.88e5	1.45e5	1.71e5	12130	inactive
50	PNUTS	2						inactive
